Source: PubChem BioAssay AID743454 (Peter MacCallum Cancer Centre, 2014)
Here is an unselected part of about 18,000 reagents tested. Over the whole deposit, 450 (2.5%) got an active call. 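Single biological run; no consistent viability z cut-off exists, so the class columns, not z-scores, define the calls.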 Entries without a mark were called inactive. Reagent sequences are not shown.

Assay: 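Knock-downs lowering viability or raising caspase 3/7 activity in vorinostat-treated resistant cells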 (primary screen)
System: human HCT116-VR colon cancer cells, selected for vorinostat resistance
Reagent: siRNA pool against human genes, 40 nM siRNA pool
Time to read-out: vorinostat for 24 h, read-out about 72 h after transfection
Challenge: vorinostat at 2.5 µM final
Measurement: 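Two measures, CellTiter-Fluor viability and luminescent caspase 3/7 activity, each as fold change against same-plate mock wells, mean of duplicates, then screen-wide robust z-score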
Reading the numbers: viability robust z-score: higher = more viable cells than screen typical; caspase robust z-score: higher = more caspase 3/7 activity than screen typical
Call rule: 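a knock-down is a hit when classed RV1 or RV2 for lowered viability, or CA1 or CA2 for caspase activation; those lethal without drug were dropped; hits were retested singly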

The opening 7 entries, to show the layout:
no.	gene	viability hit class	caspase hit class	viability robust z-score	caspase robust z-score
1	CMTM2	no change	no change	0.22	-0.54
2	MFN1	no change	no change	-1.09	0.48
3	ZNF563	no change	no change	-0.5	3.06
4	MAP7D2	no change	no change	1.84	-0.52
5	MEGF6	no change	no change	-2.79	1.65
6	CTAGE6	no change	no change	-0.44	2.55
7	TMEM38A	no change	no change	-0.09	0.41

Results, repeating the preview:
no.	gene	viability hit class	caspase hit class	viability robust z-score	caspase robust z-score
1	CMTM2	no change	no change	0.22	-0.54
2	MFN1	no change	no change	-1.09	0.48
3	ZNF563	no change	no change	-0.5	3.06
4	MAP7D2	no change	no change	1.84	-0.52
5	MEGF6	no change	no change	-2.79	1.65
6	CTAGE6	no change	no change	-0.44	2.55
7	TMEM38A	no change	no change	-0.09	0.41
8	ZSWIM8	no change	no change	-1.25	-0.63
9	ACBD4	no change	no change	0.52	0.12
10	SETD3	no change	no change	-0.88	-0.52
11	VMA12	no change	no change	-0.28	-0.86
12	GBP5	no change	no change	0.36	3.76
13	ADM2	no change	no change	-0.68	3.21
14	TRAF5	no change	no change	1.16	4.51
15	H2AB2	no change	no change	-0.74	1.26
16	CYP2C8	no change	no change	0.53	-1.05
17	DGCR2	no change	no change	-1.1	0.72
18	BZW2	no change	no change	1.3	-1.39
19	ZSCAN5A	no change	no change	-0.11	0.8
20	HEPN1	no change	no change	0.15	-0.4
21	ITGA9	no change	no change	1.24	0.31
22	RFPL2	no change	no change	-1.62	2.46
23	CLC	no change	no change	0.01	-0.96
24	DNASE2B	no change	no change	0.8	-0.75
25	SH2D3A	no change	no change	0.92	4.16
26	PRC1	no change	no change	-1.93	4.92
27	CERS1	no change	no change	-0.03	0.02
28	PRR19	no change	no change	0.47	-0.57
29	SPRY1	no change	no change	0.01	1.92
30	HMGCLL1	no change	no change	0.7	2.33
31	RAB40B	no change	no change	-0.39	3.23
32	RASA2	no change	no change	2.6	-0.3
33	LCAT	no change	no change	-0.26	0.66
34	CWF19L1	no change	no change	-0.34	0.06
35	SLC35A5	no change	no change	-1.38	1.31
36	DUT	no change	no change	1.1	0.94
37	PIN1	no change	no change	1.58	0.36
38	HSF2BP	no change	no change	1.97	1.31
39	TSPAN14	no change	no change	1.04	1.21
40	OR51B4	no change	no change	0.24	-0.64
41	PTPN22	no change	no change	-1.58	2.06
42	CRH	no change	no change	1.38	-0.16
43	CD1C	no change	no change	0.97	-0.91
44	RGPD7 (retired record)	no change	no change	1.25	0.44
45	VPS26C	no change	no change	0.71	-0.3
46	ETV1	no change	no change	1.18	-0.2
47	TRERF1	no change	no change	-1.07	1.2
48	CEP170	no change	no change	-0.08	-0.4
49	GPR3	no change	no change	-1.74	-0.36
50	RBFA	no change	no change	-0.81	4.9
51	CCDC42	no change	no change	-0.18	-0.8
52	DDX39A	no change	no change	-1.64	0.18
53	RABGGTA	no change	no change	-1.2	2.58
54	HSPB9	no change	no change	1.92	2.7
55	CD163	no change	no change	-0.92	1.77
56	BRAT1	no change	no change	0.27	0.02
57	RAD23B	no change	no change	0.12	-0.79
